No constants are given. Whether binding was seen depends on the method and setting.
B1: Ssn6 Sc3T (N175), the 175 amino-terminal residues of Ssn6 (domain or fragment, yeast, UniProt P14922 1-175, looked up)
chain: MNPGGEQTIMEQPAQQQQQQQQQQQQQQQQAAVPQQPLDPLTQSTAETWLSIASLAETLGDGDRAAMAYDATLQFNPSSAKALTSLAHLYRSRDMFQRAAELYERALLVNPELSDVWATLGHCYLMLDDLQRAYNAYQQALYHLSNPNVPKLWHGIGILYDRYGSLDYAEEAFAK
notes: Ssn6 (also known as Cyc8), yeast, the 175 amino-terminal residues: NTpolyQ tail and TPRs 1 to 3; One molecule stands for both two-hybrid forms of the same fragment: LexA-Sc3T as bait and Sc3T-Vp16 as prey; A chain carries either LexA or Vp16, never both; The LexA form was also used in the repression assay; also called LexA-Ssn6 Sc3T; LexA-Sc3T (N175); source: yeast two-hybrid fusion (LexA hybrid …)
B2: Ssn6 Δ45 (amino acids 46-181), Vp16 activation hybrid (domain or fragment, yeast, UniProt P14922 46-181, looked up)
chain: AETWLSIASLAETLGDGDRAAMAYDATLQFNPSSAKALTSLAHLYRSRDMFQRAAELYERALLVNPELSDVWATLGHCYLMLDDLQRAYNAYQQALYHLSNPNVPKLWHGIGILYDRYGSLDYAEEAFAKVLELDP
notes: Ssn6 (also known as Cyc8), yeast, amino acids 46-181; lacks the entire NTpolyQ tail (1-45); the four N-terminal TPRs; also called Ssn6 Δ45-Vp16; Ssn6 Δ45-Vp1; source: yeast two-hybrid fusion (YEp92)

Chains of the proteins cited; added tags and fusions are not shown. Residues count along the entry.
UniProt P16649, residues 1-72: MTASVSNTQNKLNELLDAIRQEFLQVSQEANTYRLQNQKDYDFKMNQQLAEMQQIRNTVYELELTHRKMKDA

Tests used:
[1] = molecular target: Ssn6 Sc3T (N175), the 175 amino-terminal residues of Ssn6 (yeast) (UniProt P14922); assay: two-hybrid; LexA hybrids as DNA-binding baits, Vp16 or Gal4 activation domain hybrids as preys; wild-type yeast strain; lacZ reporter JK103 with four LexA operators upstream of the GAL1 TATA element; beta-galactosidase activity in Miller units, average of at least three transformants
[2] = molecular target: Tup1 N72, the Ssn6-interaction and Tup1 oligomerization domain (yeast) (UniProt P16649); assay: as above

Binder	binding [1]	binding [2]
B1	no binding	–
B2	–	no binding
